Source: PubChem BioAssay AID1159524 (National Center for Advancing Translational Sciences (NCATS), 2015)
About 5,100 (1.2%) of roughly 410,000 compounds were called active. Only results without a clear call are listed here; the source files them as inconclusive. Calls come from the whole dose curve; tested in HEK293T cells.

experiment: High Throughput Screening for Foot and Mouth Disease Virus Antivirals; settings: FMDV antiviral cell-based qHTS; note: read-out not given here; nearly all actives have a fitted effect of over 45% in size
Potency is the fitted concentration of half-maximal effect.

SMILES | Potency
O=[N+]([O-])c1cc([N+](=O)[O-])c(NCC2CCS(=O)(=O)C2)c([N+](=O)[O-])c1 (stereo not drawn) | inconclusive: 20 µM
O=[N+]([O-])c1cc([N+](=O)[O-])c(Nc2ccc(Cl)cc2)c([N+](=O)[O-])c1 | inconclusive: 0.794 µM
COc1ccc(CN(CCCl)CCCl)cc1Cl | inconclusive: 25.1 µM
